Experimental data: PubChem BioAssay AID1508588 (Peter MacCallum Cancer Centre, 2020)
Screen: 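Knock-downs boosting vemurafenib effects on melanoma cell growth or lactate release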 (primary screen). Cells: human WM266.4 melanoma cells (BRAF V600 mutant). Reagents: siRNA pool against human genes, 40 nM. Timing: 96 h from transfection to read-out. Treatment: vemurafenib 300 nM (about IC25), added 48 h after transfection, for 48 h; comparison arm got DMSO vehicle only. Read-out: 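Ratios to non-targeting siRNA for cell gain, counted as DAPI nuclei after minus before drug and averaged over two replicates, and for absorbance-read medium lactate per cell; both binned into fold-change classes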. Scale: cell gain with vemurafenib: higher = more cell gain than with non-targeting siRNA; lactate per cell with vemurafenib: higher = more lactate made per cell. Rule for the call: 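Enhancement is called by pairing each knock-down's vehicle-arm and drug-arm fold-change classes for viability or glycolysis; which class combinations qualify is not given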. Meaning of the calls: active = enhances vemurafenib effect; inactive = no enhancement seen.
Shown is one part, drawn at random, of about 18,000 reagents. In the full data, 790 (4.4%) were called active. 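Calls rest on a combination of fold-change classes in drug and vehicle arms, not all shown here.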

RBM23 (RNA binding motif protein 23) [SID152155947]: cell gain with vemurafenib = 0.39; lactate per cell with vemurafenib = 1.62; call = inactive
IL36G (interleukin 36 gamma) [SID135621477]: cell gain with vemurafenib = 0.52; lactate per cell with vemurafenib = 1.5; call = inactive
POR (cytochrome p450 oxidoreductase) [SID152149336]: cell gain with vemurafenib = 0.48; lactate per cell with vemurafenib = 1.25; call = inactive
RBP4 (retinol binding protein 4) [SID135621545]: cell gain with vemurafenib = 0.24; lactate per cell with vemurafenib = 3; call = inactive
DEFB132 (defensin beta 132) [SID134329622]: cell gain with vemurafenib = -0.04; lactate per cell with vemurafenib = 1.68; call = inactive
DCBLD2 (discoidin, CUB and LCCL domain containing 2) [SID152153712]: cell gain with vemurafenib = 0.84; lactate per cell with vemurafenib = 1.12; call = inactive
SEMA3C (semaphorin 3C) [SID134312726]: cell gain with vemurafenib = 0.08; lactate per cell with vemurafenib = 0.73; call = inactive
DELEC1 (deleted in esophageal cancer 1) [SID134317626]: cell gain with vemurafenib = 0.42; lactate per cell with vemurafenib = 0.9; call = inactive
BOD1L1 (biorientation of chromosomes in cell division 1 like 1) [SID135623261]: cell gain with vemurafenib = 1.11; lactate per cell with vemurafenib = 0.64; call = inactive
DUSP18 (dual specificity phosphatase 18) [SID135621464]: cell gain with vemurafenib = 0.44; lactate per cell with vemurafenib = 1.34; call = inactive
TIMM50 (translocase of inner mitochondrial membrane 50) [SID152152065]: cell gain with vemurafenib = 0.56; lactate per cell with vemurafenib = 0.78; call = inactive
GTF2I (general transcription factor IIi) [SID134317855]: cell gain with vemurafenib = 0.78; lactate per cell with vemurafenib = 0.94; call = inactive
RBM3 (RNA binding motif protein 3) [SID152150055]: cell gain with vemurafenib = 0.54; lactate per cell with vemurafenib = 0.95; call = inactive
DDX3X (DEAD-box helicase 3 X-linked) [SID135621266]: cell gain with vemurafenib = 0.15; lactate per cell with vemurafenib = 0.9; call = inactive

4 entries already listed, sorted by “cell gain with vemurafenib”, high to low:
DCBLD2 (discoidin, CUB and LCCL domain containing 2) [SID152153712]: cell gain with vemurafenib = 0.84; lactate per cell with vemurafenib = 1.12; call = inactive
RBP4 (retinol binding protein 4) [SID135621545]: cell gain with vemurafenib = 0.24; lactate per cell with vemurafenib = 3; call = inactive
SEMA3C (semaphorin 3C) [SID134312726]: cell gain with vemurafenib = 0.08; lactate per cell with vemurafenib = 0.73; call = inactive
DEFB132 (defensin beta 132) [SID134329622]: cell gain with vemurafenib = -0.04; lactate per cell with vemurafenib = 1.68; call = inactive

Additional records follow:
TRIM37 (tripartite motif containing 37) [SID152153287]: cell gain with vemurafenib = 0.93; lactate per cell with vemurafenib = 0.7; call = inactive
TGFA (transforming growth factor alpha) [SID152154003]: cell gain with vemurafenib = 0.77; lactate per cell with vemurafenib = 0.36; call = inactive
TMEM200B (transmembrane protein 200B) [SID135624699]: cell gain with vemurafenib = 0.85; lactate per cell with vemurafenib = 0.84; call = inactive
APEH (acylaminoacyl-peptide hydrolase) [SID134311212]: cell gain with vemurafenib = 0.91; lactate per cell with vemurafenib = 0.88; call = inactive
PSG1 (pregnancy specific beta-1-glycoprotein 1) [SID134320432]: cell gain with vemurafenib = 0.95; lactate per cell with vemurafenib = 0.82; call = inactive
PDE6B (phosphodiesterase 6B) [SID152149304]: cell gain with vemurafenib = 0.68; lactate per cell with vemurafenib = 0.86; call = inactive
MAGEF1 (MAGE family member F1) [SID152153626]: cell gain with vemurafenib = 0.67; lactate per cell with vemurafenib = 1.46; call = inactive
KBTBD7 (kelch repeat and BTB domain containing 7) [SID152156141]: cell gain with vemurafenib = 0.41; lactate per cell with vemurafenib = 1.01; call = inactive
ARHGEF7 (Rho guanine nucleotide exchange factor 7) [SID134314345]: cell gain with vemurafenib = 0.51; lactate per cell with vemurafenib = 1.62; call = inactive
CCSAP (centriole, cilia and spindle associated protein) [SID134320021]: cell gain with vemurafenib = 0.28; lactate per cell with vemurafenib = 1.04; call = inactive
STAT4 (signal transducer and activator of transcription 4) [SID134316102]: cell gain with vemurafenib = 0.59; lactate per cell with vemurafenib = 1.96; call = inactive
STX16 (syntaxin 16) [SID152148609]: cell gain with vemurafenib = 0.68; lactate per cell with vemurafenib = 0.71; call = inactive
COPS8 (COP9 signalosome subunit 8) [SID135623031]: cell gain with vemurafenib = 0.6; lactate per cell with vemurafenib = 1.7; call = inactive
TBX2 (T-box transcription factor 2) [SID134316485]: cell gain with vemurafenib = 0.7; lactate per cell with vemurafenib = 0.9; call = inactive
ARHGAP44 (Rho GTPase activating protein 44) [SID134314003]: cell gain with vemurafenib = 0.62; lactate per cell with vemurafenib = 0.72; call = inactive
PIP (prolactin induced protein) [SID134310667]: cell gain with vemurafenib = 0.52; lactate per cell with vemurafenib = 1.15; call = inactive
LYPD1 (LY6/PLAUR domain containing 1) [SID135623125]: cell gain with vemurafenib = 0.55; lactate per cell with vemurafenib = 1.19; call = inactive
ATP11A (ATPase phospholipid transporting 11A) [SID135624245]: cell gain with vemurafenib = 1.08; lactate per cell with vemurafenib = 0.71; call = inactive
OR2G2 (olfactory receptor family 2 subfamily G member 2) [SID134329801]: cell gain with vemurafenib = 0.4; lactate per cell with vemurafenib = 0.4; call = inactive
MTHFSD (methenyltetrahydrofolate synthetase domain containing) [SID152154159]: cell gain with vemurafenib = 0.15; lactate per cell with vemurafenib = 2.49; call = inactive
DEFB123 (defensin beta 123) [SID134321540]: cell gain with vemurafenib = 0.6; lactate per cell with vemurafenib = 1.49; call = inactive
GTPBP4 (GTP binding protein 4) [SID152156465]: cell gain with vemurafenib = 0.62; lactate per cell with vemurafenib = 0.73; call = inactive
C12orf71 (chromosome 12 open reading frame 71) [SID135625698]: cell gain with vemurafenib = 0.77; lactate per cell with vemurafenib = 0.8; call = inactive
SLC22A7 [SID152147102]: cell gain with vemurafenib = 0.47; lactate per cell with vemurafenib = 1.06; call = inactive
SCARA5 (scavenger receptor class A member 5) [SID152153495]: cell gain with vemurafenib = 0.69; lactate per cell with vemurafenib = 1.35; call = inactive
MATCAP2 (microtubule associated tyrosine carboxypeptidase 2) [SID152155981]: cell gain with vemurafenib = 0.98; lactate per cell with vemurafenib = 0.46; call = inactive
